Measured values as given in the supplement of paper PMC10849652.
The list shows a part of the results.

The chains behind the UniProt entries cited, without tags or fusion partners. Where a name states a change or a piece, a line headed by the entry shows the natural chain unless it says otherwise.
UniProt Q9P2X0: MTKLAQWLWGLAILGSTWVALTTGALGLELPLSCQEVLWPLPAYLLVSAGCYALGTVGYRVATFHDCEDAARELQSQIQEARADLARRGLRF
UniProt Q6V1X1: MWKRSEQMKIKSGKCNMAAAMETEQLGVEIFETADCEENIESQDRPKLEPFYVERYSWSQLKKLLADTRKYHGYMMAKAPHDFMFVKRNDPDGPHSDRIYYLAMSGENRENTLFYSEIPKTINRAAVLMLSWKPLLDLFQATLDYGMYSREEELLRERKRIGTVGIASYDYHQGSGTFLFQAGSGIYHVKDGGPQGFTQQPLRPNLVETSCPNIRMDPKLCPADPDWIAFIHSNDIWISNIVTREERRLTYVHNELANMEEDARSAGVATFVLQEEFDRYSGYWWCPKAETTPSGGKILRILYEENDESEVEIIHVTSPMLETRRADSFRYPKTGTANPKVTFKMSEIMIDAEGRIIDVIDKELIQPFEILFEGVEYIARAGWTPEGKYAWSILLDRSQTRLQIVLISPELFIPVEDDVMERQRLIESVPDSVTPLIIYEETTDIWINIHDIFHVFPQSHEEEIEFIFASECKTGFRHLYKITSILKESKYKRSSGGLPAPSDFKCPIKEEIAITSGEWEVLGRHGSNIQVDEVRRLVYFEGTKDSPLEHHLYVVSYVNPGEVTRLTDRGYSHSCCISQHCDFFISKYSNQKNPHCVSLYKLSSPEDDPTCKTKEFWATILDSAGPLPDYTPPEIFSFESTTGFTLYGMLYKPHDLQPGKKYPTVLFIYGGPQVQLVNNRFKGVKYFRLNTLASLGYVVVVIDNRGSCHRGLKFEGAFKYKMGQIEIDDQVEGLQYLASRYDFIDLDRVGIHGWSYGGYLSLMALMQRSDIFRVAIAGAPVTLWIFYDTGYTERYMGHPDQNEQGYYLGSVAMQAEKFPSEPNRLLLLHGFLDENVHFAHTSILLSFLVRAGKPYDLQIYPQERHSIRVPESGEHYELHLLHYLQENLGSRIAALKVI
UniProt Q96FJ2, whole entry, looked up: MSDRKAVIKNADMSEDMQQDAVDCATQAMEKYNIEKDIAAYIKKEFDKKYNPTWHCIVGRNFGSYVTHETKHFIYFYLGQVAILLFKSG
UniProt Q99848: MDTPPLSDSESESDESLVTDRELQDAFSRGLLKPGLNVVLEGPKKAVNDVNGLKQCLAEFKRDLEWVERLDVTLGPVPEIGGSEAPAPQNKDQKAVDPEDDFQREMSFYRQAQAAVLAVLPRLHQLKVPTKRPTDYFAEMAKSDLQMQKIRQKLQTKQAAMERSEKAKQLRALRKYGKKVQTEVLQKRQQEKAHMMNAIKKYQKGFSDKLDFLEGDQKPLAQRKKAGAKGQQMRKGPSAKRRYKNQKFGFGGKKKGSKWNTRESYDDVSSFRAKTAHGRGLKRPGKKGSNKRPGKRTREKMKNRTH
UniProt Q9NVM6: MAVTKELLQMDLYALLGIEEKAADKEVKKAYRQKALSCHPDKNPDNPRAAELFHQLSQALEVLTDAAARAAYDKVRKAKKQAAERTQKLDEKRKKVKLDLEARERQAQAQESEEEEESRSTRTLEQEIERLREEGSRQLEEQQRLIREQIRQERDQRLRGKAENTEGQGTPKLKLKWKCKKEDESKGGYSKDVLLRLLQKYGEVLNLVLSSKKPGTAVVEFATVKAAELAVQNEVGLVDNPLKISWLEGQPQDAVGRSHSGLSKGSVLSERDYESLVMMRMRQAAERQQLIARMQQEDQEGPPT
UniProt O00716: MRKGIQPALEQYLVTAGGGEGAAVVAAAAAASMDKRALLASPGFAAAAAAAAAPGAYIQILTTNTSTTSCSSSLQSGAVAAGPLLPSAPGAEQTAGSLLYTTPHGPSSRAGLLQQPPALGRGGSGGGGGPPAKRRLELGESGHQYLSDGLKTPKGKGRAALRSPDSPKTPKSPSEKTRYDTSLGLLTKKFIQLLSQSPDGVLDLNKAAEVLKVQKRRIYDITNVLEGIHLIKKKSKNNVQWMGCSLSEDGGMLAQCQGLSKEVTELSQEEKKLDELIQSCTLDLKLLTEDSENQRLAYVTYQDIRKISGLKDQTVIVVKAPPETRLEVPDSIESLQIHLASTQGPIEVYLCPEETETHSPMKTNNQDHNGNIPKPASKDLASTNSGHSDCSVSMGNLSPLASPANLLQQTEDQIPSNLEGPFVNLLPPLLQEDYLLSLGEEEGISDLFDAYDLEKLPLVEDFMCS
UniProt Q96F86: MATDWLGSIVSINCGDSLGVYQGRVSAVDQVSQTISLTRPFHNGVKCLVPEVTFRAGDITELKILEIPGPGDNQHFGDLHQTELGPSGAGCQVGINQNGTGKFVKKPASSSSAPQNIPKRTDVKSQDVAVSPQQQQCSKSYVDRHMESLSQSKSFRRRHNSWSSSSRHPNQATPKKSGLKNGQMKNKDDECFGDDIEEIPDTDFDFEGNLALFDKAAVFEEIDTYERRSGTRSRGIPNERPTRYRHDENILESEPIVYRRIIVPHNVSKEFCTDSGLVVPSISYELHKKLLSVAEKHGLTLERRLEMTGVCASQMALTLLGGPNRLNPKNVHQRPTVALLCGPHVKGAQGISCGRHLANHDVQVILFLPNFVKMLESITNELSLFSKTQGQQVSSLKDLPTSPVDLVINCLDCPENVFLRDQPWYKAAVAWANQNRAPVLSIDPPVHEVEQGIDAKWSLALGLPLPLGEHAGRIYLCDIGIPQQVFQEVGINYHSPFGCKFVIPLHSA
UniProt Q96DC8: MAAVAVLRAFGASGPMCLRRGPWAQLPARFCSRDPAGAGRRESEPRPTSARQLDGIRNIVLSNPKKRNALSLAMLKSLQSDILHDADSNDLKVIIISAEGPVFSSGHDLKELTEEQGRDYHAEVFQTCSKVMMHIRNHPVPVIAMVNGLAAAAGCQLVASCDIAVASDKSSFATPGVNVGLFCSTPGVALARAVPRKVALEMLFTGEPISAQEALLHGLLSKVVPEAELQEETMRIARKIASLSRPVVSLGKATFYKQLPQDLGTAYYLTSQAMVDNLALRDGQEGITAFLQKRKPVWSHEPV
UniProt O43237, whole entry, looked up: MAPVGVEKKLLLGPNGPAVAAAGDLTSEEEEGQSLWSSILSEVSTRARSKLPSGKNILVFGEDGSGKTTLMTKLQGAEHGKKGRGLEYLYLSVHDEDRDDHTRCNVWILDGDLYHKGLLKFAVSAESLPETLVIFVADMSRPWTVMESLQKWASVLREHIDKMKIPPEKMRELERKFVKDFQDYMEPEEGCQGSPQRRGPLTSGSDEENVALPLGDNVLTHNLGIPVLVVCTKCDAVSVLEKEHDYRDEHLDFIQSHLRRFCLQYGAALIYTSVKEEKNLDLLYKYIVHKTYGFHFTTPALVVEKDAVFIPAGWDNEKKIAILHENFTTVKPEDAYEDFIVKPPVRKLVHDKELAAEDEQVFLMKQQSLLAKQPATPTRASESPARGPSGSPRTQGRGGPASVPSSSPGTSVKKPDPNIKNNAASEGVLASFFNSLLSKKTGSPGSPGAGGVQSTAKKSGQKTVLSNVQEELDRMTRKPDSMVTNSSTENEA
UniProt P63172, whole entry, looked up: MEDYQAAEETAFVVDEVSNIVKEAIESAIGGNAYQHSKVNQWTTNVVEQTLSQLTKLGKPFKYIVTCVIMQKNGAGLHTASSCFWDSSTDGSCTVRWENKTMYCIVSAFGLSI
UniProt Q96DA6: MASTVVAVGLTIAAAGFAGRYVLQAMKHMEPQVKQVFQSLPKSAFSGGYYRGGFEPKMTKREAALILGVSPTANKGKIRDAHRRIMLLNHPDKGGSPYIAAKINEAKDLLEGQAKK
UniProt Q8N5C7: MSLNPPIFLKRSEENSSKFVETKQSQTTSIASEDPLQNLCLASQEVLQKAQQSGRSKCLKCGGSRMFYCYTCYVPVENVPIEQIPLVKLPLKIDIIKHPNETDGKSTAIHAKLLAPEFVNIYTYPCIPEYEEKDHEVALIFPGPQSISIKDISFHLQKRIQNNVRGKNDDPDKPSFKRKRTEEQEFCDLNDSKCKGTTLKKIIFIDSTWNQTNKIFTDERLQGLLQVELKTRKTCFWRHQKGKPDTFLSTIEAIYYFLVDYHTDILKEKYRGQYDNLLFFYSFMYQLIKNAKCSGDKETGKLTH
UniProt Q7L591: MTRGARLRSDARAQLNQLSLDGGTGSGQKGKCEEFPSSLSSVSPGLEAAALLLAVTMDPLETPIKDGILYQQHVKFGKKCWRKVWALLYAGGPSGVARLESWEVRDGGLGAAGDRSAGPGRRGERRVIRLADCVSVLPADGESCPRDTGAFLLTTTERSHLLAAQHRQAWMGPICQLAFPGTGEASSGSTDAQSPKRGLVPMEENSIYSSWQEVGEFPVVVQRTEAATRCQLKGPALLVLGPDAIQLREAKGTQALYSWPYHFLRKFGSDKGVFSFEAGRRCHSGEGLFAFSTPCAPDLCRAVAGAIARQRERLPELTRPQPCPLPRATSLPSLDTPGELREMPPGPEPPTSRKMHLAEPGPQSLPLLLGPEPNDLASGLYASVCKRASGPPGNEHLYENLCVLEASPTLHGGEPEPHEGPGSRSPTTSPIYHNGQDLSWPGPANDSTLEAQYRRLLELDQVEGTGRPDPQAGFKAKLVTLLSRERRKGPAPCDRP
UniProt P50570: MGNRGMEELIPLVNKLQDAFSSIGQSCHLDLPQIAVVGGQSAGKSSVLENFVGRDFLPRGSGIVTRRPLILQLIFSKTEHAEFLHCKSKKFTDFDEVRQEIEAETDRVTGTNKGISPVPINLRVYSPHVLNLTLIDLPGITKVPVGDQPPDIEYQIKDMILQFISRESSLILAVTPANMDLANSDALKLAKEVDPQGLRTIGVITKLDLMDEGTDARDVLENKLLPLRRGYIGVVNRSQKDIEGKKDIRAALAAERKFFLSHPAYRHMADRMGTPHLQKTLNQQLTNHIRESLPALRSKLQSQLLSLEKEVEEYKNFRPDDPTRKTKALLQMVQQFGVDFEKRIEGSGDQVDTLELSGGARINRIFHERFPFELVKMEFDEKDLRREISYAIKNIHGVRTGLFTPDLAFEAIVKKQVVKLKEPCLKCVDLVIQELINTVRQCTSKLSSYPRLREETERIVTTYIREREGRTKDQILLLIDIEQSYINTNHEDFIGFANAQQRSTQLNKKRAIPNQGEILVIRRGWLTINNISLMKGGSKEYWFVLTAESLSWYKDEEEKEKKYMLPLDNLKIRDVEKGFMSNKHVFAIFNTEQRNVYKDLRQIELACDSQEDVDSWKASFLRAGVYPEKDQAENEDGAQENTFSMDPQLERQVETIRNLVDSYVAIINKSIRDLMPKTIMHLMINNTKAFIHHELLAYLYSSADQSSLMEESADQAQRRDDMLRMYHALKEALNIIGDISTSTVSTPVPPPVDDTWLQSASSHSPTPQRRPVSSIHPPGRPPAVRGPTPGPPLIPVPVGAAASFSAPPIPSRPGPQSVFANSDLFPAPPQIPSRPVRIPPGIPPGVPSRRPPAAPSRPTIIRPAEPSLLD
UniProt Q9H2P9: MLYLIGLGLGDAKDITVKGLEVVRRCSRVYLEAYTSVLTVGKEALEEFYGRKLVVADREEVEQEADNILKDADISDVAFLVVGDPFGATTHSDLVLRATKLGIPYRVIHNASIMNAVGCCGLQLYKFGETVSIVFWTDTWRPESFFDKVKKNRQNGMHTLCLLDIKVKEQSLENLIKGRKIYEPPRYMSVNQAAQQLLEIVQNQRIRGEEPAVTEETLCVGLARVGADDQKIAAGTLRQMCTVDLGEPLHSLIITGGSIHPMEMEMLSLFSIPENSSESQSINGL
UniProt Q6P3W2: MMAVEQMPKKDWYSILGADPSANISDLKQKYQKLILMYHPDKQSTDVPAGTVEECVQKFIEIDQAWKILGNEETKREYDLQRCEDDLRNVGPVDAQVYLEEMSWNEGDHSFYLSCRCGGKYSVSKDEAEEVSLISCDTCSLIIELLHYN
UniProt Q99704: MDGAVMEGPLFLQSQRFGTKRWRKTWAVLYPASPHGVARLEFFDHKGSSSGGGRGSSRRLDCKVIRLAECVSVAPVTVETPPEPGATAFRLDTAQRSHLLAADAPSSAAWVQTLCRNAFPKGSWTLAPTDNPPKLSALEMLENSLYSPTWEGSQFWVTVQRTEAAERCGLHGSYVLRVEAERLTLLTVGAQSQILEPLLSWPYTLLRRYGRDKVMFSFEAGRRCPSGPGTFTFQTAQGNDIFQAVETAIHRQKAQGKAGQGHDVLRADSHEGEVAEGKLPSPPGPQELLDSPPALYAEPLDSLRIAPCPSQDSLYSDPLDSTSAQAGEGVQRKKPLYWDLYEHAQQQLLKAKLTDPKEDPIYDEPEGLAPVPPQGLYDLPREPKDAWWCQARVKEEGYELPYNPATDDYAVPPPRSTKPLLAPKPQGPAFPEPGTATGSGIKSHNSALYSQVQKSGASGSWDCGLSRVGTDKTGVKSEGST
UniProt Q8NBA8: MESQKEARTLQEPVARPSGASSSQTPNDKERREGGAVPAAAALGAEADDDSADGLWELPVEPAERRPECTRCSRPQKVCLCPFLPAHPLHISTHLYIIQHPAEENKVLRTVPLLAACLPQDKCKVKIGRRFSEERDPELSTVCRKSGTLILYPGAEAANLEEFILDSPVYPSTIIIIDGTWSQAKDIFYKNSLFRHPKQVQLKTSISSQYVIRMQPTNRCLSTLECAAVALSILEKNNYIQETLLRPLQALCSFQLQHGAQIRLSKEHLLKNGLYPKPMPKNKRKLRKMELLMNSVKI

Legend:
Assay in all cases: log2 fold change, soluble protein after heating vs DMSO (PISA); higher = thermal stabilisation; K562 cells, 10 uM, 30 min; active = over 0.2 and 3.5 SD of the protein, either way, in both replicates (recomputed)
[1] = compound: CS(=O)(=O)c1ccc(-c2cnc(N)c(C(=O)Nc3ccccc3)n2)cc1
Outline: (§1)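 Soluble protein was defined as the supernatant after 21,000xg for 90 min. It came from K562 cells at 2×10^6 cells/mL given 10 μM compound for 30 min, heated in aliquots for 3 min across 48°C-58°C, pooled, and extracted in PBS with 0.5% NP-40 at 4°C, and was quantified by TMTpro 16plex LC-MS/MS with equalised channel sums. Thermal stability against control samples, from duplicates, is reported as log2 fold change.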

[2] = compound: C[C@@H](Oc1cc(-c2cnn(C3CCNCC3)c2)cnc1N)c1c(Cl)ccc(F)c1Cl [crizotinib]
Outline: as §1

[3] = compound: C[C@@H]1COCCN1C2=NC(=NC(=C2)C3(CC3)S(=O)(=O)C)C4=C5C=CNC5=CC=C4
Outline: as §1

[4] = compound: C[C@H](C1=CC=C(C=C1)C(=O)NC2=C3C=CNC3=NC=C2)N
Outline: as §1

[5] = compound: Cc1cc(Nc2cc(CN3CCOCC3)c3nc(C)c(Cc4ccc(Cl)cc4F)n3n2)n[nH]1 [gandotinib]
Outline: as §1

[6] = compound: Cc1cc(SCc2sc(-c3ccc(C(F)(F)F)cc3)nc2C)ccc1OCC(=O)O
Outline: as §1

[7] = compound: Cc1ccc(-n2nc(C(C)(C)C)cc2NC(=O)Nc2ccc(OCCN3CCOCC3)c3ccccc23)cc1 [doramapimod]
Outline: as §1

[8] = compound: Cc1ccc(C(=O)N(CCCN)[C@@H](c2nc3cc(Cl)ccc3c(=O)n2Cc2ccccc2)C(C)C)cc1 [ispinesib]
Outline: as §1

[9] = compound: C[C@H](Nc1ncnc2nc[nH]c12)c1cc2cccc(Cl)c2c(=O)n1-c1ccccc1 [duvelisib]
Outline: as §1

[10] = compound: Cc1cc(Nc2cc(N3CCN(C)CC3)nc(Sc3ccc(NC(=O)C4CC4)cc3)n2)n[nH]1 [tozasertib]
Outline: as §1

Target	log2 fold change [1]	log2 fold change [2]	log2 fold change [3]	log2 fold change [4]	log2 fold change [5]	log2 fold change [6]	log2 fold change [7]	log2 fold change [8]	log2 fold change [9]	log2 fold change [10]
DYNC1I2 isoform 5 (UniProt Q13409)	inactive: 0.026	inactive: 0.055	inactive: -0.035	inactive: -0.007	inactive: 0.027	inactive: -0.007	inactive: -0.011	inactive: 0.028		
DPM3 isoform 2 (UniProt Q9P2X0)	inactive: 0.115	inactive: -0.157	inactive: 0.16	inactive: -0.084		inactive: -0.026	inactive: 0.07	inactive: -0.011	inactive: 0.229	inactive: -0.051
ECI1 (UniProt P42126)	inactive: 0.002	inactive: 0.072	inactive: 0.156	inactive: -0.034	inactive: 0.004	inactive: 0.005	inactive: -0.011	inactive: 0.036	inactive: 0.068	inactive: 0.025
DPP8 (UniProt Q6V1X1)	inactive: 0.04	inactive: -0.003	inactive: 0.011	inactive: -0.048	inactive: -0.038	inactive: 0.006	inactive: 0.008	inactive: 0.019		
DYNLL2 (UniProt Q96FJ2)	inactive: 0.068	inactive: 0.162	inactive: 0.075	inactive: -0.093	inactive: 0.095	inactive: 0.037	inactive: -0.106	inactive: 0.043	inactive: 0.036	inactive: 0.011
EBNA1BP2 (UniProt Q99848)	inactive: -0.013	inactive: -0.025	inactive: -0.236	inactive: 0.394	inactive: 0.104	inactive: 0.025	inactive: 0.282	inactive: 0.21		
DNAJC17 (UniProt Q9NVM6)	inactive: 0.011	inactive: 0.091	inactive: 0.026	inactive: 0.016	inactive: -0.123	inactive: 0.047	inactive: -0.03	inactive: 0.059	inactive: 0.096	inactive: -0.03
DNAJC2 (UniProt Q99543)	inactive: -0.007	inactive: -0.123	inactive: -0.072	inactive: 0.159	inactive: -0.007	inactive: 0.092	inactive: 0.187	inactive: -0.168	inactive: -0.013	inactive: 0.039
E2F3 (UniProt O00716)	inactive: 0.029	inactive: -0.107	inactive: 0.054	inactive: 0.006	inactive: -0.163		inactive: 0.011	inactive: -0.094		inactive: -0.019
EDC3 (UniProt Q96F86)	inactive: 0.002	inactive: -0.237	active: -0.439	inactive: -0.014	inactive: -0.023	inactive: 0.066	inactive: 0.05	inactive: -0.121		
ECHDC3 (UniProt Q96DC8)	inactive: 0.173	inactive: 0.065	inactive: 0.068		inactive: -0.081		inactive: -0.071	inactive: -0.1		inactive: -0.06
DTNBP1 (UniProt Q96EV8)	inactive: 0.093	inactive: 0	inactive: 0.079	inactive: -0.014	inactive: -0.104	inactive: 0.022	inactive: -0.009	inactive: -0.073		
DYNC1I2 isoform 2 (UniProt Q13409)	inactive: 0.185	inactive: -0.05	inactive: -0.02	active: -0.647			inactive: -0.079	inactive: 0.06		
DRAM2 (UniProt Q6UX65)	inactive: 0.011	inactive: -0.763	inactive: 0.034	inactive: -0.054			inactive: -0.157			inactive: -0.072
DYNC1LI2 (UniProt O43237)	inactive: 0.025	inactive: 0.079	inactive: -0.283	inactive: 0.393	inactive: 0.235	inactive: 0.054	inactive: -0.121	inactive: -0.026		
DOCK7 (UniProt Q96N67)	inactive: 0.059		inactive: 0.1	inactive: -0.059	inactive: -0.037	inactive: 0.041		inactive: -0.091	inactive: -0.004	inactive: -0.024

Target	log2 fold change [1]	log2 fold change [2]	log2 fold change [3]	log2 fold change [4]	log2 fold change [5]	log2 fold change [6]	log2 fold change [7]	log2 fold change [8]	log2 fold change [9]	log2 fold change [10]
DYNLT1 (UniProt P63172)	inactive: -0.054	inactive: 0.006		inactive: -0.074	inactive: -0.016	inactive: 0.063	inactive: -0.078	inactive: 0.124	inactive: 0.118	inactive: 0.003
DYSF isoform 13 (UniProt O75923)	inactive: -0.089	inactive: 0.01	inactive: -0.059		inactive: 0.029		inactive: -0.027	inactive: -0.124		inactive: -0.018
DNAJC19 (UniProt Q96DA6)	inactive: 0.008	inactive: -0.073	inactive: 0.055	inactive: -0.089	inactive: 0.011	inactive: -0.017	inactive: -0.011	inactive: -0.069		
DTWD1 (UniProt Q8N5C7)	inactive: 0.053	inactive: 0.067	inactive: 0.061	inactive: 0.014	inactive: 0.098	inactive: 0.012	inactive: 0.009	inactive: -0.001		
DOK3 (UniProt Q7L591)	inactive: -0.128		inactive: 0.046	inactive: -0.07	inactive: 0.038	inactive: -0.012			inactive: 0.164	inactive: -0.177
DOLK (UniProt Q9UPQ8)	inactive: -0.062		inactive: -0.214	inactive: -0.104						
DNM2 isoform 4 (UniProt P50570)	inactive: -0.302	inactive: -0.087	inactive: -0.039	inactive: -0.087	inactive: 0.126	inactive: 0.5	inactive: -0.203	inactive: 0.092		
EAPP (UniProt Q56P03)	inactive: -0.12	inactive: -0.061		inactive: -0.004	inactive: -0.061	inactive: -0.015	inactive: 0.012	inactive: 0.229	inactive: 0.068	inactive: 0.066
DPH5 isoform 5 (UniProt Q9H2P9)	inactive: 0.017	inactive: 0.092	inactive: 0.072	inactive: -0.046	inactive: -0.011	inactive: -0.01	inactive: -0.025	inactive: 0.076		
DNPEP (UniProt C9JBE1)	inactive: 0.01	inactive: 0.08	inactive: 0.069		inactive: 0	inactive: -0.162	inactive: 0.031		inactive: 0.09	inactive: -0.012
E2F4 (UniProt Q16254)	inactive: 0.04	inactive: -0.029	inactive: 0.024	inactive: -0.095	inactive: -0.034	inactive: -0.019	inactive: 0.024	inactive: -0.103		
DNAJC24 (UniProt Q6P3W2)	inactive: -0.054	inactive: 0.055	inactive: -0.031	inactive: -0.004		inactive: -0.024	inactive: 0.038	inactive: 0.01		
DOK1 (UniProt Q99704)	inactive: 0.257	inactive: 0.07	inactive: 0.171	inactive: 0.034			inactive: -0.183			inactive: 0.089
DTWD2 (UniProt Q8NBA8)	inactive: 0.06	inactive: 0.133	inactive: 0.137	inactive: -0.103	inactive: 0.027	inactive: 0	inactive: 0.009	inactive: -0.092		
DNPEP (UniProt B9ZVU2)	inactive: 0.022	inactive: 0.031		inactive: -0.005	inactive: 0.089	inactive: 0.15	inactive: -0.003		inactive: 0.211	inactive: 0.085

Copied from the list:
log2 fold change [4] with DNPEP (UniProt B9ZVU2) is entered as inactive: -0.005
log2 fold change [3] with E2F3 (UniProt O00716) is entered as inactive: 0.054
